Strings that start with PEPTIDE1 are HELM notation: dots part the residues, brackets hold end groups and non-standard residues.
Assay: general procedure: solution-phase peptide synthesis; BOP/DIEA
Settings: late stage modification step

Which step yield does the source give for “PEPTIDE1{[Boc].[bAla].W.L.D.[OPhEt]}$$$$V2.0” here?
Its step yield is 79%.

Which step yield does the source give for “PEPTIDE1{[Boc].[bAla].[dW].L.D.[OPhEt]}$$$$V2.0” here?
The step yield was 84%.

Reference: US4687759 (dated 1987)
